No constants are given. Whether binding was seen depends on the method and setting. For some of these results: A result given as binding can be weak or reduced; the word gives no strength. For some of these results: Sequences can lack the tags named with a protein. For some of these results: In cells and extracts the contact can be indirect.
What was measured:
[1] = biological target: T1, ATG18A fused to the Gal4 binding domain (pDEST32) (Arabidopsis thaliana) (UniProt Q93VB2); test: two-hybrid; FYVE3 as prey (Gal4AD, pDEST22), baits on Gal4BD (pDEST32); yeast strains AH109 and Y187; growth on medium lacking Trp, Leu and His with 0 and 1 mM 3-amino-1,2,4-triazole
T1 sequence: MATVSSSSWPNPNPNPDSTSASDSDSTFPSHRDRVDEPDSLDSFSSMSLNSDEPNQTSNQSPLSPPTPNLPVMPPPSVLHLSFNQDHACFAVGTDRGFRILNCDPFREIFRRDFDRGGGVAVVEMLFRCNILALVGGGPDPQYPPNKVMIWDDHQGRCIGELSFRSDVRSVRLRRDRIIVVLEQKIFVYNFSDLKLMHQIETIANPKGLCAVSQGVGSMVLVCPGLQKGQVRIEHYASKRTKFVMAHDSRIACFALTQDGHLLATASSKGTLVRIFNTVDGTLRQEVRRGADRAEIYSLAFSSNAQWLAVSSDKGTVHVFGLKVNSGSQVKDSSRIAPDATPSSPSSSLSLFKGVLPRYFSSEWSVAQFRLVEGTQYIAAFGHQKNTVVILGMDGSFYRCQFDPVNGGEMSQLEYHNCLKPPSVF

[2] = biological target: T2, ATG6 as yeast two-hybrid bait (Arabidopsis thaliana) (UniProt Q9M367); test: as above
T2 sequence: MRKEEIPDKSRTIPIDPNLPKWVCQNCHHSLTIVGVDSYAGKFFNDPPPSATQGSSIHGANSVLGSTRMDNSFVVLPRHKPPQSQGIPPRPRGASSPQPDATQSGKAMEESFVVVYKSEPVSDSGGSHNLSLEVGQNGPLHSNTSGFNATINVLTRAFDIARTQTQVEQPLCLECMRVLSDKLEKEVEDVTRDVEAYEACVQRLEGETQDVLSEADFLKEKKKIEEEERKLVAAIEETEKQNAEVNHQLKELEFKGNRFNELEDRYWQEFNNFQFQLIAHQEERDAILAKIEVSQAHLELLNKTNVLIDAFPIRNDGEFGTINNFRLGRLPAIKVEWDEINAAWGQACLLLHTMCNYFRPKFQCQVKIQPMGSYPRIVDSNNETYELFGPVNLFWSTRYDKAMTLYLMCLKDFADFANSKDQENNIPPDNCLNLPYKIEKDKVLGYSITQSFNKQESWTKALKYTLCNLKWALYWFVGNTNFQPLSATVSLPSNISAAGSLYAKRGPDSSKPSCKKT

[3] = biological target: T3, ATG8A fused to the Gal4 binding domain (pDEST32) (Arabidopsis thaliana) (UniProt Q8LEM4); test: as above
T3 sequence: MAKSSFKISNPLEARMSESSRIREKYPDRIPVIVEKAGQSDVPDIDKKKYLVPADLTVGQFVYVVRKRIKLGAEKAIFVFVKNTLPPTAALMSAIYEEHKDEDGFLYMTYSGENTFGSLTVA

[4] = biological target: T4, ATG8E fused to the Gal4 binding domain (pDEST32) (Arabidopsis thaliana) (UniProt Q8S926); test: as above
T4 sequence: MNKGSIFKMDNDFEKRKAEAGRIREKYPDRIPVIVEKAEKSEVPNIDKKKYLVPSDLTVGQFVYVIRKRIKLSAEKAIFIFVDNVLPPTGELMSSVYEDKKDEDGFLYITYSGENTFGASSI

[5] = biological target: T5, ATG8F fused to the Gal4 binding domain (pDEST32) (Arabidopsis thaliana) (UniProt Q8VYK7); test: as above
T5 sequence: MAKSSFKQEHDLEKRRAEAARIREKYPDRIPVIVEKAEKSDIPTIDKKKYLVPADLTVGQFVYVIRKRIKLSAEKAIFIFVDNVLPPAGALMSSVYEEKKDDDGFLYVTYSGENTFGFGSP

[6] = biological target: T6, ATG8I fused to the Gal4 binding domain (pDEST32) (Arabidopsis thaliana) (UniProt Q9LRP7); test: as above
T6 sequence: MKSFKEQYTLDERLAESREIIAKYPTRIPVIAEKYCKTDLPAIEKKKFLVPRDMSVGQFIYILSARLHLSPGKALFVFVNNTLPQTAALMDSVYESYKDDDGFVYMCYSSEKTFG

[7] = biological target: T7, CYFP-ATG18A (PSAT5-c(175-END)EYFP-C1(B)-ATG18A) (Arabidopsis thaliana) (UniProt Q93VB2); test: split reporter; BiFC in Arabidopsis leaf protoplasts; NYFP (EYFP 1-174) on FYVE3, CYFP (EYFP 175-end) on the partners; reconstituted fluorescence by confocal microscopy
T7 sequence: T1 sequence

[8] = biological target: T8, CYFP-ATG6 (PSAT5-c(175-END)EYFP-C1(B)-ATG6) (Arabidopsis thaliana) (UniProt Q9M367); test: as above
T8 sequence: T2 sequence

[9] = biological target: T9, CYFP-ATG8A (PSAT5-c(175-END)EYFP-C1(B)-ATG8A) (Arabidopsis thaliana) (UniProt Q8LEM4); test: as above
T9 sequence: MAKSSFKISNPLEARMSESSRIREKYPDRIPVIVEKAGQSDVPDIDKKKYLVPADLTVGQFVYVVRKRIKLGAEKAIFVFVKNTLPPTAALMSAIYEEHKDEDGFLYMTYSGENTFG

[10] = biological target: T10, CYFP-TRAF1A (PSAT5-c(175-END)EYFP-C1(B)-TRAF1A) (Arabidopsis thaliana) (UniProt Q8RY18); test: as above
T10 sequence: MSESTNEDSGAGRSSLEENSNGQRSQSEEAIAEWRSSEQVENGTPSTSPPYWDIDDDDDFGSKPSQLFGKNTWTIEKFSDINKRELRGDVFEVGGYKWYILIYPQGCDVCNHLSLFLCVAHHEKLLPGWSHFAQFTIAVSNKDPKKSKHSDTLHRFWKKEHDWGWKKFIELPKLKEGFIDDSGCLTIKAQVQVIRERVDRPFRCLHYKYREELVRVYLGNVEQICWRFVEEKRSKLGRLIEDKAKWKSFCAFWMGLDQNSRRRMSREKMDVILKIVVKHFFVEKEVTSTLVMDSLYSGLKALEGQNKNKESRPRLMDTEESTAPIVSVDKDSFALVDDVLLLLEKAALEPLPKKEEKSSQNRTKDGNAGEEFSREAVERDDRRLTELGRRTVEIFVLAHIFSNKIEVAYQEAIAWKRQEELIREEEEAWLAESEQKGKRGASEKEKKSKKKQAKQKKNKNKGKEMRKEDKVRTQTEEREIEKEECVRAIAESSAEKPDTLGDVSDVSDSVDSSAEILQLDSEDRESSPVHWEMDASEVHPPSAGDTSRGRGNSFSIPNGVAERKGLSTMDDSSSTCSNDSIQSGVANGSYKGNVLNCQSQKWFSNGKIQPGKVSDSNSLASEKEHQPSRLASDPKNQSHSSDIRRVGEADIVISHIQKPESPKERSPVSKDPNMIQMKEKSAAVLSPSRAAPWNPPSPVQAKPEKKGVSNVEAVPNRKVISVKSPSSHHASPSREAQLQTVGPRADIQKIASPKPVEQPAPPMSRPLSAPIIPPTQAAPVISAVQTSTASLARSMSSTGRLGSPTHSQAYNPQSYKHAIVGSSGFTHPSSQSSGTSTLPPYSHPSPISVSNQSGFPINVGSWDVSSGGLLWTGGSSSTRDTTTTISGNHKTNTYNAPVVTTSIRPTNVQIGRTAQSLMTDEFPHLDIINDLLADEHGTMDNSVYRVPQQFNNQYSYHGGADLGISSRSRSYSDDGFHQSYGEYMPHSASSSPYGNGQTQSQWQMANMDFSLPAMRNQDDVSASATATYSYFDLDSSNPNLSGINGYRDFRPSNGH

Row | binding [1] | binding [2] | binding [3] | binding [4] | binding [5] | binding [6] | binding [7] | binding [8] | binding [9] | binding [10] | Substance
1 | no binding | no binding | binds | no binding | binds | no binding | – | – | – | – | FYVE3 fused to the Gal4 activation domain (pDEST22-FYVE3) (Arabidopsis thaliana)
2 | – | – | – | – | – | – | binds | binds | binds | no binding | NYFP-FYVE3 (PSAT4-n(1-174)EYFP-C1-FYVE3) (Arabidopsis thaliana)

— PMC10050702
